# The other results are listed elsewhere or left out. Most entries show no effect beyond the scatter of the controls.
# Protein sequences, listed by entry. Tags and fused reporters are not part of them. Lines headed by an entry give the natural chain unless they say otherwise; changes in a name come on top.
# UniProt Q92843: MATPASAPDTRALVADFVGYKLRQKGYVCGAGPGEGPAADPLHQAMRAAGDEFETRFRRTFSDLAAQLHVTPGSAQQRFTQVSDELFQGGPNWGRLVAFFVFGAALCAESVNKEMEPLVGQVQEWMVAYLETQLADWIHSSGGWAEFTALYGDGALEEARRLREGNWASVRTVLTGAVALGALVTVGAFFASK
# UniProt Q96AT9: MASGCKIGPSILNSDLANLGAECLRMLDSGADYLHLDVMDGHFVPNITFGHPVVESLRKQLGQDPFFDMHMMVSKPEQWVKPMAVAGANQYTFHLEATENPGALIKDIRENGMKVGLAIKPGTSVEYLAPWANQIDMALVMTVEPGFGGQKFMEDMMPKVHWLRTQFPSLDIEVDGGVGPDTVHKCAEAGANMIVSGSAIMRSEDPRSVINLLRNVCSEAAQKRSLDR
# UniProt Q96EF0: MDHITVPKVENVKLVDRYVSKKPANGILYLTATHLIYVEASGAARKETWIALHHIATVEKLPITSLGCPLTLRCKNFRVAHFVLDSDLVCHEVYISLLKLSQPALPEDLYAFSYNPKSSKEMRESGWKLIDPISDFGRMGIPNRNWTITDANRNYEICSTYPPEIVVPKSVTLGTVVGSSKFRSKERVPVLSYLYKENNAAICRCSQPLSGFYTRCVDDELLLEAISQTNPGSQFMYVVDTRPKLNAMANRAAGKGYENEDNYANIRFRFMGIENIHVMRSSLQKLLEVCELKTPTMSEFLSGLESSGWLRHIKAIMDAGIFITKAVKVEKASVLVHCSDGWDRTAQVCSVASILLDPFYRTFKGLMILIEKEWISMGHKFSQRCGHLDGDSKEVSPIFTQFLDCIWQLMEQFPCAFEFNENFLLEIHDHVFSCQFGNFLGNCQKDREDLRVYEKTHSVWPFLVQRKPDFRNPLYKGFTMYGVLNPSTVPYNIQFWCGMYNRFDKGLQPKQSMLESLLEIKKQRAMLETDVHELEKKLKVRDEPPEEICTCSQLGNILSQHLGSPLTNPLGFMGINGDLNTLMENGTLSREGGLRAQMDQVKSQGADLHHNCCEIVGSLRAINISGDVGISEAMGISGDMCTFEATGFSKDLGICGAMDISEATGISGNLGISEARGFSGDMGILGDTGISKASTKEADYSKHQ
# UniProt Q96DC7: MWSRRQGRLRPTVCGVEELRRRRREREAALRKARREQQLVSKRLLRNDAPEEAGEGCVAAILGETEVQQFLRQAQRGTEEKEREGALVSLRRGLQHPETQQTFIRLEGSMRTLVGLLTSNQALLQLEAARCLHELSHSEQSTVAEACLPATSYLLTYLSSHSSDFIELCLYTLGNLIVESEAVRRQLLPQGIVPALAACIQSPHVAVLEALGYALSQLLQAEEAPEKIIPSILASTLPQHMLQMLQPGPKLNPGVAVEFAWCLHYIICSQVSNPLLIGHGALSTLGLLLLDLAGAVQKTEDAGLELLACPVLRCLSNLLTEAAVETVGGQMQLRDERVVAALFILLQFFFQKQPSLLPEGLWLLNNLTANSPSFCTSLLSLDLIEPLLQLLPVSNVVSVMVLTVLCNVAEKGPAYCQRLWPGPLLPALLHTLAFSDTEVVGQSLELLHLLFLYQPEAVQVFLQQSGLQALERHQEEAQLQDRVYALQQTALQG
# UniProt Q969J2: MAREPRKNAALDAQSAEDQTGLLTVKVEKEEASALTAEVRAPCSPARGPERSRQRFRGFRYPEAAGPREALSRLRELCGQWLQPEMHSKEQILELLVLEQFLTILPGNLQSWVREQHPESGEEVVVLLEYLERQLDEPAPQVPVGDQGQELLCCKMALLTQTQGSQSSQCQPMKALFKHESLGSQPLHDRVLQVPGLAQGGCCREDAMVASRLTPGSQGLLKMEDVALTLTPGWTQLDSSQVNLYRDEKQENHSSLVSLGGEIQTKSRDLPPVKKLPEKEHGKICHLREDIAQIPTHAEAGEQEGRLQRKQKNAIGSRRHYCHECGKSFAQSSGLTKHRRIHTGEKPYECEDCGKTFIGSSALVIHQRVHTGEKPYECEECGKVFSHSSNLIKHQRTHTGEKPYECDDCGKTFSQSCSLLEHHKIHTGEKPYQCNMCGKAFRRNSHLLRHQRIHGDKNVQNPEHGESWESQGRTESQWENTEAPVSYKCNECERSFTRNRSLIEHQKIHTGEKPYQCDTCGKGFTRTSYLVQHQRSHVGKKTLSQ
# UniProt Q96D46: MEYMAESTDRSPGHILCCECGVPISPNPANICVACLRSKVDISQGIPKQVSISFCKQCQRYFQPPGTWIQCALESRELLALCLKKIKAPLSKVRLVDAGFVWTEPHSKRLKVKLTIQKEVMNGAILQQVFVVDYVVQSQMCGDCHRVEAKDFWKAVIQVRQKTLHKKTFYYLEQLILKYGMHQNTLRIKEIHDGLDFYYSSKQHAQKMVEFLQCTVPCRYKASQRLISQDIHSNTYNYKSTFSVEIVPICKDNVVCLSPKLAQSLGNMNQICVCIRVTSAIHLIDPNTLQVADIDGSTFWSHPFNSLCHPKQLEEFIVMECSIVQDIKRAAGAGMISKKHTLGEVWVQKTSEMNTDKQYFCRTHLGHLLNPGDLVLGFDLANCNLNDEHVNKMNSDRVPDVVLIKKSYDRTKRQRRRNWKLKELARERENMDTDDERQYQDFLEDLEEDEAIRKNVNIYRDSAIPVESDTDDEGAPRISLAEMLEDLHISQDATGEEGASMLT
# UniProt Q96C57: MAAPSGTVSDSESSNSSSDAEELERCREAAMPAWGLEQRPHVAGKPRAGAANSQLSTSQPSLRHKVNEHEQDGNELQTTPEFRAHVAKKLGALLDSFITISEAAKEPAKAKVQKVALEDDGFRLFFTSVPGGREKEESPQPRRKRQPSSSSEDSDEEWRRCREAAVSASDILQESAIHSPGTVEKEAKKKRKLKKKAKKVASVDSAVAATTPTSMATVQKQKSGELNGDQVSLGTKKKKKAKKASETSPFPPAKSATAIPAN
# UniProt Q92845: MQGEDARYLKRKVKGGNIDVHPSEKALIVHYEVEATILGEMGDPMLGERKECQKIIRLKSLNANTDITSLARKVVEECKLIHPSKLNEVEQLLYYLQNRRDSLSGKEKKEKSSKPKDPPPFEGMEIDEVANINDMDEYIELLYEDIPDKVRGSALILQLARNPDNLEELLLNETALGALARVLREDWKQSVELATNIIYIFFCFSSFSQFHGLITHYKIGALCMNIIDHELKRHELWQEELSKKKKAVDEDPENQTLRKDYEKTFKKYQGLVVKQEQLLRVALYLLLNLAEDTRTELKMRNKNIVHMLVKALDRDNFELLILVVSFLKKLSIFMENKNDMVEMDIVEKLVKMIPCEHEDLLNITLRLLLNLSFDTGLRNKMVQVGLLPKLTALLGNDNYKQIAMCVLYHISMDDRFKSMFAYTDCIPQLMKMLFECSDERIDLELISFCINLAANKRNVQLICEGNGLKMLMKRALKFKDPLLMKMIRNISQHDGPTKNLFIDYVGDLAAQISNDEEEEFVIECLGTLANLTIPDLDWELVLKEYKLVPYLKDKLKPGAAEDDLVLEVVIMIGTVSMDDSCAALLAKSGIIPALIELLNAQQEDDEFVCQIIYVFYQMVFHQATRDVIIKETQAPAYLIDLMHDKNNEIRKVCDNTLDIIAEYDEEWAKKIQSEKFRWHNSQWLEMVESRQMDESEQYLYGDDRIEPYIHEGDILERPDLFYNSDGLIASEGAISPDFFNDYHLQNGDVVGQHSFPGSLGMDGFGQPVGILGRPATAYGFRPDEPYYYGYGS
# UniProt Q96EI5: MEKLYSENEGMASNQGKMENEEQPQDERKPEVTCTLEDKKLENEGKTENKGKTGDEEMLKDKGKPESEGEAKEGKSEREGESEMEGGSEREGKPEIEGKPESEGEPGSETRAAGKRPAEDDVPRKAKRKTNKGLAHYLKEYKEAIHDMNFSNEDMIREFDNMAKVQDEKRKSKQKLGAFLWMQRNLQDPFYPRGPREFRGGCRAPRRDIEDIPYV
# UniProt Q96EY8: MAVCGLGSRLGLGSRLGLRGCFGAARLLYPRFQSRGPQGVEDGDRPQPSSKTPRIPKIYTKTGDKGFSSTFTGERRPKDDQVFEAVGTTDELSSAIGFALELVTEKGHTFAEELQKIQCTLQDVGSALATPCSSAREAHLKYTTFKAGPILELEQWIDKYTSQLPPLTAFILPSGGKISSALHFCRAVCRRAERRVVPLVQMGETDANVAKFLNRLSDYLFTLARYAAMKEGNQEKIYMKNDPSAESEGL
# UniProt Q96BW5: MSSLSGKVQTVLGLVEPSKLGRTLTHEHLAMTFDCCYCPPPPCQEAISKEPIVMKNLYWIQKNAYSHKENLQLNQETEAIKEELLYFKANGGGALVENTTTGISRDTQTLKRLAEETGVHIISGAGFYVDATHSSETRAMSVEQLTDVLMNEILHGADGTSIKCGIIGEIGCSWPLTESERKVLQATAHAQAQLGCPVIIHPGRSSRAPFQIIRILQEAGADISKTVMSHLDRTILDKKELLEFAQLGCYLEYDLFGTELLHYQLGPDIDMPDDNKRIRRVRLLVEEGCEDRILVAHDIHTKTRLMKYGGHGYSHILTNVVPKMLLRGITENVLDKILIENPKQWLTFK
# UniProt Q96GJ1: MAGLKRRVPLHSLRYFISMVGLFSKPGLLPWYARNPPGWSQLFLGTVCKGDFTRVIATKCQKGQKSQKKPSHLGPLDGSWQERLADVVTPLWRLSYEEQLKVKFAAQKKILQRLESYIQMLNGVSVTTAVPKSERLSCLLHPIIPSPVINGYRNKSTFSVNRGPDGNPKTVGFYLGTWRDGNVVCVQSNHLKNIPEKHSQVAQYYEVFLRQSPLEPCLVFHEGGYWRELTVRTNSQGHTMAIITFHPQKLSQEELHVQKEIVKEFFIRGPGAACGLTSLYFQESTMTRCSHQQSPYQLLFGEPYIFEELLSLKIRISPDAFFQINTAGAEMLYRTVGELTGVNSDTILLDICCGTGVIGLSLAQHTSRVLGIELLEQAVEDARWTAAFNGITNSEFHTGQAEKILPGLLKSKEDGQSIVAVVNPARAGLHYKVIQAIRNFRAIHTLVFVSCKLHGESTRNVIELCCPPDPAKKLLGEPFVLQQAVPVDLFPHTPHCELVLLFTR
# UniProt Q96CU9: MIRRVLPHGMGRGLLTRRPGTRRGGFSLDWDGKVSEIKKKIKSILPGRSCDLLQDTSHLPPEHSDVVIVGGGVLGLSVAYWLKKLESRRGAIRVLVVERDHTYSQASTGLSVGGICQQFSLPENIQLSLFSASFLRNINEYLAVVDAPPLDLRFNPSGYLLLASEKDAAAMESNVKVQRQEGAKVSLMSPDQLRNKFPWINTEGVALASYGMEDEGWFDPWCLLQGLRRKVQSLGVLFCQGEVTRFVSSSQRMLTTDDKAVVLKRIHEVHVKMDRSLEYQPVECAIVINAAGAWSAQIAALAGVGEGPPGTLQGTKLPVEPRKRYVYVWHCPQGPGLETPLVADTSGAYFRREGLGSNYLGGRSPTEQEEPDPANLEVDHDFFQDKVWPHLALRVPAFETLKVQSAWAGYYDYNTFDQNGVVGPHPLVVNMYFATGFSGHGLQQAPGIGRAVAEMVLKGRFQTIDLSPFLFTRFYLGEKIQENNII
# UniProt Q96FT9: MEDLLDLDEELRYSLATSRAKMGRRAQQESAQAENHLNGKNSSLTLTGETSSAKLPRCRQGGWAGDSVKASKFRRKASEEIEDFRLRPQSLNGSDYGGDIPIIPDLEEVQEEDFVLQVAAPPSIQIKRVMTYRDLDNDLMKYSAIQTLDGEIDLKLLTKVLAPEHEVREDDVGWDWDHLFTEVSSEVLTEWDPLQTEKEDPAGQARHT
# UniProt Q93050, whole entry: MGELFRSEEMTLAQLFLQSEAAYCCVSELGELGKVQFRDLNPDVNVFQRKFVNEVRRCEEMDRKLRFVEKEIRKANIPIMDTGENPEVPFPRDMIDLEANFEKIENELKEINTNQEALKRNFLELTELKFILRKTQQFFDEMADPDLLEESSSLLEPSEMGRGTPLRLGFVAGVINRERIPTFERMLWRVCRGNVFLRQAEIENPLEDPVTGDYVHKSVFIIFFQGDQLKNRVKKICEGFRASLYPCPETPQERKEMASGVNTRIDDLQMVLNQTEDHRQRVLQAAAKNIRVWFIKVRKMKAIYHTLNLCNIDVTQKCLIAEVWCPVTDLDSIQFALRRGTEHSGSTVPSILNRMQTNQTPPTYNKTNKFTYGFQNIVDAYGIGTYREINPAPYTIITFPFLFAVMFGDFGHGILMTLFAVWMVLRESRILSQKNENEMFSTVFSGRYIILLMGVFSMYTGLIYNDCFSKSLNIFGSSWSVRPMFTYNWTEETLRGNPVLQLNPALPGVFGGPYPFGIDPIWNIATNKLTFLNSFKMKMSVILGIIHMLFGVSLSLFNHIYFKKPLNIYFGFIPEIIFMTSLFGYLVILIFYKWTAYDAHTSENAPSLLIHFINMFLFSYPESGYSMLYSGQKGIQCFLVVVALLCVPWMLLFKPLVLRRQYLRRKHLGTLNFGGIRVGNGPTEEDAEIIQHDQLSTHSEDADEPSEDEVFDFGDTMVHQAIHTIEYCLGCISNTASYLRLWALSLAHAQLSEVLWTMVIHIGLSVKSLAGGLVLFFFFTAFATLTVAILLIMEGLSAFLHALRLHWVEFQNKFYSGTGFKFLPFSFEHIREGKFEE
# Compound: CN[C@@H]1C[C@H]2O[C@@](C)([C@@H]1OC)n1c3ccccc3c3c4c(c5c6ccccc6n2c5c31)C(=O)NC4 [staurosporine]
# Assay: log2 fold change of tryptic peptide abundance, ligand vs vehicle (limited proteolysis) (log2 ratio); higher = more trypsin-susceptible (destabilized)
# Conditions: ligand concentration: 20 uM; sample: K562 cleared lysate; digestion: 4 min, 22 C (HT-PELSA RT4min, Orbitrap Astral)
row,Target,log2 fold change
1,"BCL2L2 (peptide sequence: ALVADFVGYK, peptide start residue: 12) (UniProt Q92843)",-0.27
2,"RNF166 (peptide sequence: SLVASAQQR, peptide start residue: 6) (UniProt Q96A37)",0.115
3,"MOCOS (peptide sequence: CQMICIDQQTGQR, peptide start residue: 811) (UniProt Q96EN8)",1.07
4,"FAM104A (peptide sequence: SFHPPAAMSER, peptide start residue: 60) (UniProt Q969W3)",0.559
5,"RPE (peptide sequence: NVCSEAAQKR, peptide start residue: 215) (UniProt Q96AT9)",0.299
6,"PSMG2 (peptide sequence: CIPEIDDSEFCIR, peptide start residue: 168) (UniProt Q969U7)",-0.306
7,"MTMR8 (peptide sequence: QSMLESLLEIKK, peptide start residue: 511) (UniProt Q96EF0)",0.53
8,"TMCO6 (peptide sequence: LRPTVCGVEELR, peptide start residue: 9) (UniProt Q96DC7)",0.173
9,"ZKSCAN4 (peptide sequence: EDIAQIPTHAEAGEQEGR, peptide start residue: 289) (UniProt Q969J2)",0.301
10,"NMD3 (peptide sequence: ELLALCLK, peptide start residue: 77) (UniProt Q96D46)",0.223
11,"WDR34 (peptide sequence: MPSSVPLR, peptide start residue: 374) (UniProt Q96EX3)",0.32
12,"SLC7A6OS (peptide sequence: YPLDVQK, peptide start residue: 290) (UniProt Q96CW6)",-0.375
13,"UniProt Q96C57 (peptide sequence: CREAAVSASDILQESAIHSPGTVEK, peptide start residue: 161)",0.395
14,"ATG4C (peptide sequence: FISAWNNMK, peptide start residue: 16) (UniProt Q96DT6)",0.00855
15,"FAM136A (peptide sequence: AKDSIDAGSK, peptide start residue: 90) (UniProt Q96C01)",0.323
16,"KIFAP3 (peptide sequence: MIPCEHEDLLNITLR, peptide start residue: 352) (UniProt Q92845)",-0.0912
17,"GPRASP2 (peptide sequence: AGEEVIAGPERENDVPLVVRPK, peptide start residue: 18) (UniProt Q96D09)",-0.165
18,"ALKBH8 (peptide sequence: ETPPSFPESDKEASR, peptide start residue: 355) (UniProt Q96BT7)",0.489

row,Target,log2 fold change
1,"TCEAL4 (peptide sequence: KLENEGKTENK, peptide start residue: 40) (UniProt Q96EI5)",0.62
2,"MMAB (peptide sequence: GPQGVEDGDRPQPSSK, peptide start residue: 36) (UniProt Q96EY8)",-0.121
3,"OTUB1 (peptide sequence: AFGFSHLEALLDDSKELQR, peptide start residue: 95) (UniProt Q96FW1)",0.0782
4,"GLMN (peptide sequence: MIFNHGR, peptide start residue: 258) (UniProt Q92990)",0.268
5,"CLUAP1 (peptide sequence: EILTQVQK, peptide start residue: 191) (UniProt Q96AJ1)",0.248
6,"PTER (peptide sequence: ILQEAGADISK, peptide start residue: 215) (UniProt Q96BW5)",0.297
7,"UniProt Q96GC9 (peptide sequence: EHHNGNFTDPSSVNEK, peptide start residue: 18)",-0.233
8,"ENTR1 (peptide sequence: LKQEISLLQAQVSNFQR, peptide start residue: 348) (UniProt Q96C92)",0.24
9,"TRMT2B (peptide sequence: LADVVTPLWR, peptide start residue: 84) (UniProt Q96GJ1)",-0.215
10,"KHSRP (peptide sequence: DQGGFGDRNEYGSR, peptide start residue: 307) (UniProt Q92945)",-0.174
11,"FOXRED1 (peptide sequence: EGLGSNYLGGR, peptide start residue: 353) (UniProt Q96CU9)",0.188
12,"UniProt Q96FT9 (peptide sequence: RAQQESAQAENHLNGK, peptide start residue: 25)",0.105
13,"ISL2 (peptide sequence: QLQQQQHSDK, peptide start residue: 255) (UniProt Q96A47)",0.223
14,"PHKB (peptide sequence: TPTGFYDRVWQILER, peptide start residue: 937) (UniProt Q93100)",-0.251
15,"ATP6V0A1 (peptide sequence: HLGTLNFGGIR, peptide start residue: 667) (UniProt Q93050)",-0.0157
16,"UniProt Q96BD8 (peptide sequence: EFTTLKADKK, peptide start residue: 218)",1.1
17,"COPS5 (peptide sequence: TTIEAIHGLMSQVIKDK, peptide start residue: 310) (UniProt Q92905)",0.165
18,"L3MBTL2 (peptide sequence: GMKVEVLNSDAVLPSR, peptide start residue: 213) (UniProt Q969R5)",-0.568

# Part of the list above, with bars between the fields:
row | Target | log2 fold change
5 | CLUAP1 (peptide sequence: EILTQVQK, peptide start residue: 191) (UniProt Q96AJ1) | 0.248
7 | UniProt Q96GC9 (peptide sequence: EHHNGNFTDPSSVNEK, peptide start residue: 18) | -0.233
17 | COPS5 (peptide sequence: TTIEAIHGLMSQVIKDK, peptide start residue: 310) (UniProt Q92905) | 0.165

# Source: the supplement of paper PMC12819154, “High-throughput peptide-centric local stability assay extends protein–ligand identification to membrane proteins, tissues and bacteria” (Nature Structural & Molecular Biology, 2025)
